Laboratory results as given in patent US10475593B2, “Use of halogen derivatives of histidine as electrolytic salt in a photovoltaic dye cell” (CENTRE NATIONAL DE LA RECHERCHE SCIENTIFIQUE, priority 2014, dated 2019).

Assay: Photovoltaic conversion of dye-sensitized cells under AM 1.5 illumination
Conditions: for fill factor / light/electricity conversion efficiency / photocurrent / photovoltage: AM 1.5, 100 mW/cm^2, electrolyte salt 1 mol/l

## COC(=O)CCc1cn(C)c[n+]1C.[I-] [Compound 3a, 4-(3-methoxy-3-oxopropyl)-1,3-dimethyl-1H-imidazol-3-ium Iodide]
  fill factor: 67%
  light/electricity conversion efficiency: 8.5%
  photocurrent: 19.5 mA/cm^2
  photovoltage: 647 mV
Replacement of DMII by 3a
  gain in current versus DMII: more than 15%

## Cn1cc[n+](C)c1.[I-] [DMII, 1,3-Dimethylimidazolium iodide, reference compound]
  fill factor: 69.3%
  light/electricity conversion efficiency: 8.0%
  photocurrent: 16.9 mA/cm^2
  photovoltage: 680 mV
